What was measured:
Assay type in all cases: cell-based, human
[1] = test system: 4EBP1, p70S6K1/2 and AKT; test: Western blot of downstream mTOR effectors in PC3 cells; details: 3 hours, rapamycin 50 nM, PP242 2.5 μM
[2] = test system: SW620 cells; test: Western blot of phosphorylation of protein translation components in SW620 cells; details: 2.5 μM PP242
Protocol: (§1) SW620 cells (ATCC, passage 12) were seeded at about 75% confluence 24 hrs prior to drug treatment. […] About 6×10^6 cells/10 cm plate and about 1×10^6 cells/well of a 6-well plate were harvested for ribosome profiling and Western blot analysis, respectively, following drug treatment.
Cells were washed with PBS and lysed in 1× cell lysis buffer (Cell Signaling) for 15 min at 4° C. Lysates were sonicated briefly, clarified by centrifugation for 15 min at 14, 000 rpm, and supernatants were then collected. Protein concentration in the soluble fraction was determined by BCA protein assay (Thermo Scientific). A 4-20% Bis-Tris gradient gel (Invitrogen) was used to resolve 20 μg of protein and transferred to nitrocellulose membrane. The resulting membranes were blocked for 1 hr at room temperature with Odyssey blocking solution (LI-COR) and then incubated with primary antibodies at 4° C. overnight. The following day, the blots were washed 3 times, 10 min each in TBST, and incubated with IR-conjugated goat anti-rabbit IgG secondary antibody (IRDye 800 CW at 1:20,000; LI-COR) for 1 hour at room temperature. The blots were then washed, scanned, and specific proteins were detected using the LI-COR Odyssey infrared imager. […]

[3] = test system: SW620 cells; test: Ribosome profiling of SW620 cells (transcription, translational rate, translational efficiency); details: 2.5 μM PP242, 3 hrs
Protocol: SW620 human colon cancer cells were cultured in DMEM media supplemented with penicillin G (100 U/ml), streptomycin (100 μg/ml), and 10% FBS in a humidified atmosphere of 5% CO2 maintained at 37° C.
as §1

CC(C)n1nc(-c2cc3cc(O)ccc3[nH]2)c2c(N)ncnc21 [PP242]
activity of the three primary downstream mTOR effectors 4EBP1, p70S6K1/2 and AKT [1]: significantly inhibited | inhibition of phosphorylation [2]: significant inhibition | translational efficiency of genes sensitive to 2.5 μM PP242 in PC3 cells [3]: also sensitive
